Assay results taken from US8084196B2, “Method for the in vitro screening of anti-cancer compounds that inhibits SK3 activity, and said anti-cancer compounds” (priority 2006, dated 2011).
At least one structure is not confirmed: it was looked up by name or label, or the drawing left a doubt.

Columns and labels:
[1] = system: SKmel-28 cells; assay: Cell migration, SKmel-28 melanoma cells; format: cell-based; details: SKmel-28, 10 nM apamin, 24 h, FIG. 5
[2] = system: MDA-MB-435s cells; details: FIG. 2A-2C
[3] = system: 518A2 cells; assay: Cell migration, 518A2 melanoma cells; format: cell-based; details: 518A2, 10 nM apamin, 24 h, FIG. 5
Method: Histograms showing the effect of 10 nM apamin on cell migration (FIG. 5A). Cells were seeded at 40000 in a cell culture insert in DMEM with 5% FBS±apamin. The lower compartment of the insert contained DMEM with 10% FBS as a chemoattractant±apamin. After 24 h, cells of the lower side were stained with hematoxylin (FIG. 5B, right) and counted. The normalized cell number corresponded to the ratio of total number of migrating cells in presence of apamin/total number of migrating cells in control experiments. The apamin concentration selected has no effect on cell proliferation and viability. […] Mammary cancer MDA-MB-435s cells were used as control cell. […]
Cell proliferation was determined using the tetrazolium salt reduction method, as described (Roger S, Potier M, Vandier C, Le Guennec J Y, Besson P. Description and role in proliferation of iberiotoxin-sensitive currents in different human mammary epithelial normal and cancerous cells. Biochim Biophys Acta 2004; 1667:190-9.). […] Cell migration was analyzed in 24-well plates receiving 8-μm pore size polyethylene terephtalate membrane cell culture inserts (Becton Dickinson, France), as described (Roger S, Potier M, Vandier C, Le Guennec J Y, Besson P. Description and role in proliferation of iberiotoxin-sensitive currents in different human mammary epithelial normal and cancerous cells. Biochim Biophys Acta 2004; 1667:190-9.).

[4] = system: T47D; assay: Cell migration, T47D; format: cell-based, human; details: data not shown
[5] = system: SKBR3; assay: Cell migration, SKBR3; format: cell-based, human; details: SKBR3, data not shown
[6] = system: SK3-transfected 184A1 cells; assay: Cell migration of SK3-transfected 184A1 cells; format: cell-based; details: 184A1 transiently transfected with SK3, 10 nM apamin, FIG. 4B
[7] = system: 184A1; assay: Cell migration, 184A1; format: cell-based; details: 184A1, data not shown
[8] = system: MCF-10A; assay: Cell migration, MCF-10A; format: cell-based; details: data not shown
[9] = system: 518A2 cells; assay: Whole-cell patch-clamp outward K+ currents in 518A2; format: cell-based; details: 518A2, FIG. 6
[10] = system: MDA-MB-231; assay: Cell migration, MDA-MB-231; format: cell-based, human; details: MDA-MB-231, data not shown
[11] = system: MDA-MB-435s cells; assay: Cell proliferation/viability, tetrazolium salt reduction, MDA-MB-435s; format: cell-based, human; details: drug 24 h at the concentrations used for migration
[12] = system: Bris cells; assay: Cell migration, Bris melanoma cells; format: cell-based; details: 10 nM apamin, 24 h, FIG. 5
[13] = system: MDA-MB-435s cells; assay: Intracellular Ca2+ measurement in MDA-MB-435s; format: cell-based, human; details: 10 nM apamin
[14] = system: NHEM cells; assay: Cell migration, non cancerous melanocyte NHEM; format: cell-based; details: 10 nM apamin, 24 h, FIG. 5
[15] = system: SK3-transfected MCF-7 cells; assay: Cell migration of SK3-transfected MCF-7 cells; format: cell-based, human; details: MCF-7 transiently transfected with SK3, 10 nM apamin, FIG. 4B
[16] = system: MDA-MB-435s cells; format: cell-based, human
Method: Cells were seeded at 40000 in a cell culture insert in DMEM with 5% FBS±drugs or [K^+] 60 mM. […] 60 mM. After 24 h, cells of the lower compartment were stained with hematoxylin (A, bottom) and counted. The normalized cell number corresponded to the ratio of total number of migrating cells in presence of drug or [K^+] 60 mM/total number of migrating cells in control experiments. […] Scale bar=10 μm for the two panels.
Cell proliferation was determined using the tetrazolium salt reduction method, as described (Roger S, Potier M, Vandier C, Le Guennec J Y, Besson P. Description and role in proliferation of iberiotoxin-sensitive currents in different human mammary epithelial normal and cancerous cells. Biochim Biophys Acta 2004; 1667:190-9.). Cells were seeded on 24-well plates and grown for 48 h. […] Cell migration was analyzed in 24-well plates receiving 8-μm pore size polyethylene terephtalate membrane cell culture inserts (Becton Dickinson, France), as described (Roger S, Potier M, Vandier C, Le Guennec J Y, Besson P. Description and role in proliferation of iberiotoxin-sensitive currents in different human mammary epithelial normal and cancerous cells. Biochim Biophys Acta 2004; 1667:190-9.).

SMILES: CC(C)C[C@@H]1NC(=O)[C@H](C)NC(=O)[C@H]([C@@H](C)O)NC(=O)[C@H](CCC(=O)O)NC(=O)[C@@H]2CCCN2C(=O)[C@H](C)NC(=O)[C@H](CCCCN)NC(=O)[C@@H]2CSSC[C@@H](C(=O)N[C@@H](CCC(N)=O)C(=O)N[C@@H](CCC(N)=O)C(=O)N[C@@H](Cc3cnc[nH]3)C(N)=O)NC(=O)[C@H](CCCNC(=N)N)NC(=O)[C@H](CCCNC(=N)N)NC(=O)[C@H](C)NC(=O)[C@H](CSSC[C@H](N)C(=O)N[C@@H](CC(N)=O)C(=O)N2)NC1=O [apamin]
- cell migration [1]: not
- effect on whole-cell outward currents [2]: largely decreased
- cell migration [3]: decreases
- sensitivity of cell migration to apamin treatment [4]: insensitive
- sensitivity of cell migration to apamin treatment [5]: insensitive
- number of migrating cells [6]: markedly decreased
- sensitivity of cell migration to apamin treatment [7]: insensitive
- sensitivity of cell migration to apamin treatment [8]: insensitive
- reversibility of the effect on outward currents [9]: reversible
- sensitivity of cell migration to apamin treatment [10]: insensitive
- cell proliferation/viability [11]: without affecting
- cell migration [12]: decreases
- basal [Ca2+]i after treatment ([13]; 24 h, n=34, control 379±30 nM): 204 ± 18 nM
- decrease of basal [Ca2+]i ([13]; 24 h treatment, p<0.05): 46%
- cell migration [14]: not
- number of migrating cells [15]: markedly decreased
- residual migrating capacity of siRNA-transfected cells ([16]; MDA-MB-435s after SK3 siRNA transfection, 10 nM apamin): unaffected
- number of migrating cells ([16]; MDA-MB-435s, 24 h with drug, FIG. 1): decreased
